# From ChEMBL document CHEMBL1141364, “Design and synthesis of indane-ureido-thioisobutyric acids: A novel class of PPARalpha agonists” (Bioorg Med Chem Lett, 2007)
# pEC50: −log10 of the molar value.
# Biological target: T1, Peroxisome proliferator-activated receptor gamma (Homo sapiens, UniProt P37231)
# T1 sequence (P37231 whole entry): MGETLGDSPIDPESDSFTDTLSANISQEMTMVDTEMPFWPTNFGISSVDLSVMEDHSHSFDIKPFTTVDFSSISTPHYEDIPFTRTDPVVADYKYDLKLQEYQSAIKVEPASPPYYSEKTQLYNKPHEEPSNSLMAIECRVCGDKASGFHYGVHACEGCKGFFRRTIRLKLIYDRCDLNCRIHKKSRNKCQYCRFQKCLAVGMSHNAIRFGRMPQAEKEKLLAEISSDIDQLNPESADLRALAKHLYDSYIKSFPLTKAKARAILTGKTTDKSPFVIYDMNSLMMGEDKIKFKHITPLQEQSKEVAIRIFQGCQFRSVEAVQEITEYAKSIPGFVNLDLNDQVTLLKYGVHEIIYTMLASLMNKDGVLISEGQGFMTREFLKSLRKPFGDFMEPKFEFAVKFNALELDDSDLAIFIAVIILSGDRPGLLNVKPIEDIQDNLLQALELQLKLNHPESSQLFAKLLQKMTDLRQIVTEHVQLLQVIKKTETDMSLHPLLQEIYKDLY
compound,measurement,value
CCCCCCCN(CCc1ccc(SC(C)(C)C(=O)O)cc1)C(=O)Nc1ccc(F)cc1F [GSK-9578],pEC50,6.30
